At least one compound was matched to its structure with a doubt left.
Tested on: SYO-1 and FUJI cell lines
Experiment: Erastin / sigma-2 erastin treatment, cell death
Format: cell-based
Details: 24 hours; compared with SKLMS-1 and MG-63
Protocol: For FACS analysis, cell lines were plated at 200,000 cells per well, and incubated in various culture conditions. Media was collected in a FACS tube and samples were washed with PBS. The PBS was transferred into the FACS tube, and 0.5 mL 0.05% Trypsin/EDTA was added to each well. Samples were incubated for 5 minutes at 37° C., and diluted with 0.5 mL complete media before being transferred to the FACS tube. Wells were washed once with PBS, transferred to the FACS tube, and centrifuged at 800 g for 5 minutes at room temperature. The supernatant was aspirated off, and pellets were resuspended in 200 μL PBS (unstained control samples used for gating) or 200 μL of 1 μg/mL propidium iodide dissolved in PBS. Samples were run on a FAScan instrument and fluorescence analyzed on the Blue FL2 channel. Data was further analyzed using FloJo software.
For the evaluation of glucose deprivation alone and under additional conditions, cell lines were plated in a 6-well format at 200,000 cells per well on day 1. SYO was cultured and plated in Dulbecco's Modified Eagle Medium (DMEM) with 10% FBS and penicillin/streptomycin (include additional glucose concentration), which FUJI was cultured in RPMI medium with 10% FBS and penicillin/streptomycin. […] Samples were then ran and fluorescence analyzed via Blue FL2 channel on a FAScan instrument. […]

## CCOc1ccccc1-n1c(C(C)N2CCN(C(=O)COc3ccc(Cl)cc3)CC2)nc2ccccc2c1=O (stereo not shown) [erastin]
  cell death: significant cell death
